Data from PubChem BioAssay AID328 (DTP/NCI, 2004).
The list shows only some results of the screen, not a fair sample: it gathers tests that were run many times, whatever their T/C, doses with no T/C, and many T/C values between a quarter and a half above the control. Further doses and runs are listed elsewhere. T/C: endpoint of the treated group in % of that of the vehicle group. Some entries give survivors of the animals treated and no T/C: the source files T/C as zero there, which appears to mark a toxic dose or a test without result, not a measured value. Some doses without a T/C left all or most animals alive at the check, yet need not have been tolerated: survival well below the control is almost never listed, so the zero probably covers shortened survival too. Survivors were counted at the toxicity check, usually on the fifth day, unless a day is given; later deaths do not show. Schedule codes are those of the source, taken here to give the interval after Q, in days (D) or hours (H), and the number of doses after X. Some entries hold several experiments; the results are listed from low to high. For survival time, the PubChem record calls one and a half times the control and up active, and a quarter to a half above the control has no call in these data; cut-offs in other NCI protocols can differ.

Tested on: BDF1 mice, P388 leukemia ip, median survival T/C
Experiment: NCI In Vivo Anticancer Drug Screen. Data for tumor model P388 Leukemia (intraperitoneal) in B6D2F1 (BDF1) mice
Conditions: T/C endpoint: median survival time, higher T/C = longer survival
Method in brief: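 In tumour-bearing mice, survival after compound treatment is set against the vehicle group and given as a quotient.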

[1] = dose: 100.0 mg/kg/injection, schedule: Q01DX009 (ip), vehicle: Klucel (hydroxypropylcellulose) (HPC)
[2] = dose: 200.0 mg/kg/injection, schedule: Q04DX002 (ip), vehicle: saline with Tween-80
[3] = dose: 400.0 mg/kg/injection, schedule: Q04DX002 (ip), vehicle: saline with Tween-80

For CCCCNP(=O)(N1CC1C)N1CC1C (stereo not given), the T/C (dose: 33.0 mg/kg/injection, schedule: Q04DX003 (ip), vehicle: saline) was 145 % of control, the survivor count (dose: 200.0 mg/kg/injection, schedule: Q04DX003 (ip), vehicle: saline) was 5 of 6 and the survivor count (dose: 400.0 mg/kg/injection, schedule: Q04DX003 (ip), vehicle: saline) was 1 of 6.
In the case of CN(C)C=Nc1ccc2c3c(cccc13)CC2, the survivor count (dose: 66.0 mg/kg/injection, schedule: Q01DX009 (ip), vehicle: Klucel (hydroxypropylcellulose) (HPC)) is reported as 2 of 6 and the survivor count [1] is reported as 1 of 6.
Cc1nc2[nH]c(=O)ccc2c(C)c1N was tested, and the survivor count [2] was 0 of 6 and the survivor count [3] was 0 of 6.
For CCOC(=O)c1[nH]c2cccc3c2c1CC(Br)C3=O (stereo not given), the T/C (dose: 25.0 mg/kg/injection, schedule: Q04DX002 (ip), vehicle: saline with Tween-80) was 126 % of control, the T/C (dose: 50.0 mg/kg/injection, schedule: Q04DX002 (ip), vehicle: saline with Tween-80) was 128 % of control and the T/C (dose: 100.0 mg/kg/injection, schedule: Q04DX002 (ip), vehicle: saline with Tween-80) was 125 and 132 % of control. The T/C [2] was 141 % of control, the survivor count [2] was 5 of 6 and the survivor count [3] was 1 of 6.
S=c1sc(-c2ccc(Cl)cc2)c[se]1 was tested, and the survivor count (dose: 6.25 mg/kg/injection, schedule: Q01DX009 (ip), vehicle: saline with Tween-80) was 6 of 6, the survivor count (dose: 25.0 mg/kg/injection, schedule: Q01DX009 (ip), vehicle: saline with Tween-80) was 6 of 6 and the survivor count (dose: 50.0 mg/kg/injection, schedule: Q01DX009 (ip), vehicle: saline with Tween-80) was 5 of 6. The survivor count (dose: 100.0 mg/kg/injection, schedule: Q01DX009 (ip), vehicle: saline with Tween-80) was 6 of 6.
In the case of NC(CSC(c1ccccc1)(c1ccccc1)c1ccc2ccccc2c1)C(=O)O (stereo not given), the T/C (dose: 0.52 mg/kg/injection, schedule: Q01DX009 (ip), vehicle: saline) is reported as 144 % of control, the T/C (dose: 0.79 mg/kg/injection, schedule: Q01DX009 (ip), vehicle: saline) is reported as 137 % of control and the survivor count (dose: 1.2 mg/kg/injection, schedule: Q01DX009 (ip), vehicle: saline) is reported as 0 of 6. For the same compound, the survivor count (dose: 1.8 mg/kg/injection, schedule: Q01DX009 (ip), vehicle: saline) was 0 of 6, the survivor count (dose: 25.0 mg/kg/injection, schedule: Q01DX009 (ip), vehicle: saline) was 6 of 6 and the survivor count (dose: 50.0 mg/kg/injection, schedule: Q01DX009 (ip), vehicle: saline) was 5 of 6. The survivor count (dose: 66.0 mg/kg/injection, schedule: Q04DX003 (ip), vehicle: saline) was 6 of 6, the survivor count [1] was 5 of 6 and the survivor count (dose: 100.0 mg/kg/injection, schedule: Q01DX009 (ip), vehicle: saline) was 3 of 6. For the same compound, the survivor count (dose: 100.0 mg/kg/injection, schedule: Q04DX003 (ip), vehicle: saline) was 4 of 6, the survivor count (dose: 150.0 mg/kg/injection, schedule: Q04DX003 (ip), vehicle: saline) was 4 of 6 and 5 of 6 and the survivor count (dose: 200.0 mg/kg/injection, schedule: Q01DX009 (ip), vehicle: saline) was 1 of 6. The survivor count (dose: 200.0 mg/kg/injection, schedule: Q04DX003 (ip), vehicle: Klucel (hydroxypropylcellulose) (HPC)) was 4 of 6.
